Consider six molecules from publication PMC12578389.

Amino acid sequences for entries named in this document (tags omitted).
UniProt Q9Z1S8: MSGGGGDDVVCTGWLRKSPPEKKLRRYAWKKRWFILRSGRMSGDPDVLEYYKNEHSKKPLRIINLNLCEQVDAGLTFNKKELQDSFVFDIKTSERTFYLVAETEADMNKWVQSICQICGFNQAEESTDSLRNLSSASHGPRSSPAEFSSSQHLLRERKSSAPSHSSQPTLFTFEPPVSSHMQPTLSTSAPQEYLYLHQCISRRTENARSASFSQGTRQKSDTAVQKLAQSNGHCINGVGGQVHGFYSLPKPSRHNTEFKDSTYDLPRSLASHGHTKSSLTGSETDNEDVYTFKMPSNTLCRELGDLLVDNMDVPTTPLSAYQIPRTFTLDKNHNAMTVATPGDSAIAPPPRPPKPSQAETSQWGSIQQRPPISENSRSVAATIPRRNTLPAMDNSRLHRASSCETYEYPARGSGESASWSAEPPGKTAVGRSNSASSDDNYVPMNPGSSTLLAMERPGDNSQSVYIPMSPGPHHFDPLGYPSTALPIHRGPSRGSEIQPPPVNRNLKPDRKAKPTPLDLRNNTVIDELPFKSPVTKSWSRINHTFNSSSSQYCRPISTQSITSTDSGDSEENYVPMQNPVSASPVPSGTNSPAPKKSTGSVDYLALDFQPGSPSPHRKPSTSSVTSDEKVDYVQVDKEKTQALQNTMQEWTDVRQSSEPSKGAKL
UniProt P42337: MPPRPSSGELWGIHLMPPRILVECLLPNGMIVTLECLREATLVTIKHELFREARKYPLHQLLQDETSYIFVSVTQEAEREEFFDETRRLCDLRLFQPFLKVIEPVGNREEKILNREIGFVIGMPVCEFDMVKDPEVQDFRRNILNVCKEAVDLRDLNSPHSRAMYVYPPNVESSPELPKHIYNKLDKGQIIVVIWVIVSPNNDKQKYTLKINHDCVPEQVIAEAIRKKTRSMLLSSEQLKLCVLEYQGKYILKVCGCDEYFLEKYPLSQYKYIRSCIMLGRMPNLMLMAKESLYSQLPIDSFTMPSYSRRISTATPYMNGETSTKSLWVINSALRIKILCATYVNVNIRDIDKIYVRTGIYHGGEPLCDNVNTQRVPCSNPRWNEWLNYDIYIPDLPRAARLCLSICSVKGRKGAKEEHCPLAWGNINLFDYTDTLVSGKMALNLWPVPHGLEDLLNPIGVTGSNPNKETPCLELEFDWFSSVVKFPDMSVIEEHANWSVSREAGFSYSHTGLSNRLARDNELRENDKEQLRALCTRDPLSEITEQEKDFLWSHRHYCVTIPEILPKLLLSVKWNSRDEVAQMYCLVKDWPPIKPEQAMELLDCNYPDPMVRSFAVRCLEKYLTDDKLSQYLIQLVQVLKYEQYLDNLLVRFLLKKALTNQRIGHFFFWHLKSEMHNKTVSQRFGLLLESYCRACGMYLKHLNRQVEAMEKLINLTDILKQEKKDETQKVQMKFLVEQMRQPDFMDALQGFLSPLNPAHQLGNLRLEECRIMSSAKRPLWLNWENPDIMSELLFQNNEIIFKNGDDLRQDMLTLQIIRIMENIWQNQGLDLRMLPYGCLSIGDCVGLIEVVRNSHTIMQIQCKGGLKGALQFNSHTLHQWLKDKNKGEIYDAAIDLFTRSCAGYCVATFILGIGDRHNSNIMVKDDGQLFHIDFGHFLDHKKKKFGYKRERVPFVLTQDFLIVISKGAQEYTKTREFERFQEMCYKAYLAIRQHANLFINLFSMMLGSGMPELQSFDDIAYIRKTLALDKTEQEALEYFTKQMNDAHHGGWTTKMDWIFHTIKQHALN
UniProt P26450: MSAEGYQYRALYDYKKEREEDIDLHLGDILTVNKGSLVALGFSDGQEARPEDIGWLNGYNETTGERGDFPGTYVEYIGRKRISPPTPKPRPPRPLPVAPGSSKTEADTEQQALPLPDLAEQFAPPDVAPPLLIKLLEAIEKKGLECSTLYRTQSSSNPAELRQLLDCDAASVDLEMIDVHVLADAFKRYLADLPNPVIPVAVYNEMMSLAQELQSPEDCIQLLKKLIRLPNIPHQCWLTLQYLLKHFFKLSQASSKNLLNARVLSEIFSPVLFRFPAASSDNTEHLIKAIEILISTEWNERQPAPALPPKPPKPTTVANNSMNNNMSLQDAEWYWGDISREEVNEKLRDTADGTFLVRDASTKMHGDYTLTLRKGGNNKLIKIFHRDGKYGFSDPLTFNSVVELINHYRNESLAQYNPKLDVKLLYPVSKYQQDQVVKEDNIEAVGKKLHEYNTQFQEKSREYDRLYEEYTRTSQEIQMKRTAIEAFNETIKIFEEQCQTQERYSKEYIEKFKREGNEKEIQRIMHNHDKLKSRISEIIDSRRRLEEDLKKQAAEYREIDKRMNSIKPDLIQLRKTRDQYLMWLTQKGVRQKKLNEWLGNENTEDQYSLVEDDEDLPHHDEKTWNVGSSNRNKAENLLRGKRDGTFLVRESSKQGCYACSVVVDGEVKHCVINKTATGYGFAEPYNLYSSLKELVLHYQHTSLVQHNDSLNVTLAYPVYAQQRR
UniProt Q8BTI9: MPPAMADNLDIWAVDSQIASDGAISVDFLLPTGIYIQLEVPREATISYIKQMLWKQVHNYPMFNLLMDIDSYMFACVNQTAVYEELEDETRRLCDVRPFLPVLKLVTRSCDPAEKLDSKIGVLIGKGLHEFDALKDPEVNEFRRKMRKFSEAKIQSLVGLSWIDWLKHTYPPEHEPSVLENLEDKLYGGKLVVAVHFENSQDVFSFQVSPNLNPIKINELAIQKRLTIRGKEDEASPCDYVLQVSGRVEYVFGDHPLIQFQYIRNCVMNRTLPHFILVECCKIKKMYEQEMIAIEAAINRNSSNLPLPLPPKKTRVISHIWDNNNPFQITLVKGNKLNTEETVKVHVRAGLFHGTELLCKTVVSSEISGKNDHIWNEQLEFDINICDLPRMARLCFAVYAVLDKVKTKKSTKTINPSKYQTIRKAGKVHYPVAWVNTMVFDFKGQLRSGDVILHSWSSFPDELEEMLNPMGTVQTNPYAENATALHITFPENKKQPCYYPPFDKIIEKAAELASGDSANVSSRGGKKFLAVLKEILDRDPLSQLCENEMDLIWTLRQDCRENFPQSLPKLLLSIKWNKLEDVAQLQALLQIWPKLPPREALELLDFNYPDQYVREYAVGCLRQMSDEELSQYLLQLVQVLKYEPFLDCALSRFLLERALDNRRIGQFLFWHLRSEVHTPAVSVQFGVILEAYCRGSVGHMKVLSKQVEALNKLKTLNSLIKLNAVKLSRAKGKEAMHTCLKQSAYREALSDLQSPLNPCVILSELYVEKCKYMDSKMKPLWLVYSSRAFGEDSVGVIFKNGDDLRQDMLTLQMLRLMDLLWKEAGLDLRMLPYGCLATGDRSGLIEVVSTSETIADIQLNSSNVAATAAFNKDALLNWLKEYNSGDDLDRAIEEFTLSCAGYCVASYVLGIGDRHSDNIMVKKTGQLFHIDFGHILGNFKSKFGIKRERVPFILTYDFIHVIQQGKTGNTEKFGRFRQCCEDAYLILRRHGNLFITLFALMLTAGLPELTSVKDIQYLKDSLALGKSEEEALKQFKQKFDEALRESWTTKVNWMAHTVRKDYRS

Results are given in words; binding and its absence hold for the method and conditions named. In cells and extracts the contact can be indirect. Here binding means that the protein was enriched with, or labelled near, the bait; the list need not be complete.

For this assay, the target named is GAB2 (Grb2-associated binding protein 2) fused to TurboID, bait (UniProt Q9Z1S8). The assay can be described thus: proximity labelling; TurboID fused to the N- or C-terminus of the bait, MSCV retrovirus in primary lineage-depleted murine bone marrow HSPCs of the genotypes WT, Dnmt3a^R878H/+ or Dnmt3a^R878H/+ x Npm1^cA/+; streptavidin bead pulldown, mass spectrometry, spectral counts against TurboID alone.

Regarding “CBL, endogenous in murine bone marrow HSPCs (from UniProt P22682 1-913)”, the binding result was “binds”.
The same measure for “PIK3CA, endogenous in murine bone marrow HSPCs (from UniProt P42337 1-1068)”: “binds”; for “PIK3R1 (PI3K regulatory subunit), endogenous in murine bone marrow HSPCs (from UniProt P26450 1-724)”: “binds”; for “PI4KA, endogenous in murine bone marrow HSPCs (from UniProt E9Q3L2 1-2105)”: “binds”.
Regarding “PIK3CB, endogenous in murine bone marrow HSPCs (from UniProt Q8BTI9 1-1064)”, the binding result is recorded as “binds”.

B1: PIK3CD (PI3 kinase p110 subunit), endogenous in murine bone marrow HSPCs (protein, UniProt O35904 1-1043)
chain: MPPGVDCPMEFWTKEESQSVVVDFLLPTGVYLNFPVSRNANLSTIKQVLWHRAQYEPLFHMLSDPEAYVFTCVNQTAEQQELEDEQRRLCDIQPFLPVLRLVAREGDRVKKLINSQISLLIGKGLHEFDSLRDPEVNDFRTKMRQFCEEAAAHRQQLGWVEWLQYSFPLQLEPSARGWRAGLLRVSNRALLVNVKFEGSEESFTFQVSTKDMPLALMACALRKKATVFRQPLVEQPEEYALQVNGRHEYLYGNYPLCHFQYICSCLHSGLTPHLTMVHSSSILAMRDEQSNPAPQVQKPRAKPPPIPAKKPSSVSLWSLEQPFSIELIEGRKVNADERMKLVVQAGLFHGNEMLCKTVSSSEVNVCSEPVWKQRLEFDISVCDLPRMARLCFALYAVVEKAKKARSTKKKSKKADCPIAWANLMLFDYKDQLKTGERCLYMWPSVPDEKGELLNPAGTVRGNPNTESAAALVIYLPEVAPHPVYFPALEKILELGRHGERGRITEEELQLREILERRGSGELYEHEKDLVWKMRHEVQEHFPEALARLLLVTKWNKHEDVAQMLYLLCSWPELPVLSALELLDFSFPDCYVGSFAIKSLRKLTDDELFQYLLQLVQVLKYESYLDCELTKFLLGRALANRKIGHFLFWHLRSEMHVPSVALRFGLIMEAYCRGSTHHMKVLMKQGEALSKLKALNDFVKVSSQKTTKPQTKEMMHMCMRQETYMEALSHLQSPLDPSTLLEEVCVEQCTFMDSKMKPLWIMYSSEEAGSAGNVGIIFKNGDDLRQDMLTLQMIQLMDVLWKQEGLDLRMTPYGCLPTGDRTGLIEVVLHSDTIANIQLNKSNMAATAAFNKDALLNWLKSKNPGEALDRAIEEFTLSCAGYCVATYVLGIGDRHSDNIMIRESGQLFHIDFGHFLGNFKTKFGINRERVPFILTYDFVHVIQQGKTNNSEKFERFRGYCERAYTILRRHGLLFLHLFALMRAAGLPELSCSKDIQYLKDSLALGKTEEEALKHFRVKFNEALRESWKTKVNWLAHNVSKDNRQ
B1: the binding entry is given as “binds”.
